Measured values as given in PMC2976706.
No constants are given. Whether binding was seen depends on the method and setting. Binding seen in cells or lysates may run through a third protein. Some entries that bind do so weakly or less than the wild type. For some of these results: Sequences can lack the tags named with a protein.

Amino acid sequences for entries named in this document (tags omitted).
UniProt Q01094: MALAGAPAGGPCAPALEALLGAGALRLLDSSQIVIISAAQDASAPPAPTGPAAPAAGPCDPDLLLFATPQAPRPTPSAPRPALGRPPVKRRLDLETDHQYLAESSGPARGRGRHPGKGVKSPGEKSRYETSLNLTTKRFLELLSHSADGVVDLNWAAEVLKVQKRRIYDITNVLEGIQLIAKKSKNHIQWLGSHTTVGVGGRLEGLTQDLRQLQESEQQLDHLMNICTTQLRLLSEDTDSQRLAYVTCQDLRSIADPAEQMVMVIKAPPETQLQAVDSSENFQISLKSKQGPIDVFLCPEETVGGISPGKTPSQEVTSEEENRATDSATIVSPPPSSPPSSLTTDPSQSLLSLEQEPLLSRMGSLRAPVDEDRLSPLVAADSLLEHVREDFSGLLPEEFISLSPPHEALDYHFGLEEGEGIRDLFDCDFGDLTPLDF

T1: wt HA-Orc1 (U2OS) (human) (UniProt Q13415)
T1 sequence: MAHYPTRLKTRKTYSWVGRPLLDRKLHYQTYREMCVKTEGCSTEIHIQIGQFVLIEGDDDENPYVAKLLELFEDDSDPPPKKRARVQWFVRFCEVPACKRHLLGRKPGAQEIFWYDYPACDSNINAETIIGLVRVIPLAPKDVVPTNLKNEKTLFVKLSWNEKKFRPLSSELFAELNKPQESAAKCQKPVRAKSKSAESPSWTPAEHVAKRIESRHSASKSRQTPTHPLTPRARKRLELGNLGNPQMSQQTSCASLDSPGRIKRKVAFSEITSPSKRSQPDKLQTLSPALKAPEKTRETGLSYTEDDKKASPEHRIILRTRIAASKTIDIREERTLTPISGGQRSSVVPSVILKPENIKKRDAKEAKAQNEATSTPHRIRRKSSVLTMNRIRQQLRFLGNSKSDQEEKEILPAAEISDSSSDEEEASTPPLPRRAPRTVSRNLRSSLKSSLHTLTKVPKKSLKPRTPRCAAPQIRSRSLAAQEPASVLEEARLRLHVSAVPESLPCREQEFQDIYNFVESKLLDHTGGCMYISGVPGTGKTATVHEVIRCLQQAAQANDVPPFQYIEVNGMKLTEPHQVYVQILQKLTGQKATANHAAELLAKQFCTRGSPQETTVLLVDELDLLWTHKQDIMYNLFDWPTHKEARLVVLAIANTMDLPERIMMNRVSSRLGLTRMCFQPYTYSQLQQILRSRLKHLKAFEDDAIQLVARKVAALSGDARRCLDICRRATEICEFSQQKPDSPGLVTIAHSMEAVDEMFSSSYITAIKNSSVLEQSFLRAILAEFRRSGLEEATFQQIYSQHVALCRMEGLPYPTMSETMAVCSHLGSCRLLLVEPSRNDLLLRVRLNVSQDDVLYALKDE

T2: HA-Orc1 LPGRK (U2OS) (human) (UniProt Q13415)
T2 sequence: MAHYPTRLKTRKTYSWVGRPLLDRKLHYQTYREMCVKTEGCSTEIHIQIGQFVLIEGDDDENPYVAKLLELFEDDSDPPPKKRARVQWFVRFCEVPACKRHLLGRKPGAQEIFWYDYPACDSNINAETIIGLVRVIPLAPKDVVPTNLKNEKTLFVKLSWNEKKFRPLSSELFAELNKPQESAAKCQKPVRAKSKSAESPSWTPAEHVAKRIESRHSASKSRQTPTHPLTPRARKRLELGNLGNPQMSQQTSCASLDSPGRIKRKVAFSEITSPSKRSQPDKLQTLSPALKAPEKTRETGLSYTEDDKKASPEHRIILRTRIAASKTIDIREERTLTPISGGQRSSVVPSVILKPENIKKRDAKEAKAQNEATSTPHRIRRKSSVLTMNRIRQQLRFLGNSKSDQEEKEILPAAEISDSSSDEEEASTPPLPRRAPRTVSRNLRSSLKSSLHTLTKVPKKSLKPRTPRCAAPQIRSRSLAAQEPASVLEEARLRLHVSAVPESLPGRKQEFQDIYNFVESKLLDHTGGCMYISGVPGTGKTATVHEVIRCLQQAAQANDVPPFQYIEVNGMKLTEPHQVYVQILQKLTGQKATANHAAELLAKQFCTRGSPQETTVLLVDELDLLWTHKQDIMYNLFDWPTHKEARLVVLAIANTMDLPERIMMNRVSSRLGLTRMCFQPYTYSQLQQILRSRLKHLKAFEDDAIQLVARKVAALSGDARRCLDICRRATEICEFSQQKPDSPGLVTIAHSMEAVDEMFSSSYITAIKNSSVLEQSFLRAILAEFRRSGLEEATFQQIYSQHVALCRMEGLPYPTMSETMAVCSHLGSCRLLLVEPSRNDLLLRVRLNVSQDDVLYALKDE

T3: GST-Rb (379-928) (human) (UniProt P06400)
T3 sequence: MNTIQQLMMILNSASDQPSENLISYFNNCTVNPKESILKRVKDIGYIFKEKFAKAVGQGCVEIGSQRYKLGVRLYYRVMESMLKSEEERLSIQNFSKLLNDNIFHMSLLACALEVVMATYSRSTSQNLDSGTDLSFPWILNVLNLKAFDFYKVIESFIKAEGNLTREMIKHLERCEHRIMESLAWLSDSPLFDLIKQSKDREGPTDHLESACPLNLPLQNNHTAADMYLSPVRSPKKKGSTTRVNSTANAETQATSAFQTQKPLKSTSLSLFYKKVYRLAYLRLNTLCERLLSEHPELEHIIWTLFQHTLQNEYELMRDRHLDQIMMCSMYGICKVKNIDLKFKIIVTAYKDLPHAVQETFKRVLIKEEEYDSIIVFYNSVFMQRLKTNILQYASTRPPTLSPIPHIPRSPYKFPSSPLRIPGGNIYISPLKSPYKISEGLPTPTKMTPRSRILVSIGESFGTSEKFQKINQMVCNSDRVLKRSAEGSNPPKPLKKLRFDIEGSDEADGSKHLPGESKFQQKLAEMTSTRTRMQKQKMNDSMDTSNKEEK


What was measured:
[1] = target: T1, wt HA-Orc1 (U2OS) (human); assay: co-IP; anti-HA immunoprecipitation from U2OS cells transfected with wt HA-Orc1 or HA-Orc1 LPGRK; western blot for endogenous Rb
[2] = target: T2, HA-Orc1 LPGRK (U2OS) (human); assay: as above
[3] = target: GST-E2F1 (human) (UniProt Q01094); assay: pull-down; 1 ug GST fusion protein on glutathione-agarose beads, pretreated with DNase I and RNase A, incubated with in vitro translated [35S]-protein in 0.1 mg/ml ethidium bromide; SDS-PAGE, phosphoimaging; only the target purified
[4] = target: T3, GST-Rb (379-928) (human); assay: as above

binding [1] | binding [2] | binding [3] | binding [4] | Binder
binds | binds |  |  | endogenous Rb (U2OS) (protein, UniProt P06400 1-928) MPPKTPRKTAATAAAAAAEPPAPPPPPPPEEDPEQDSGPEDLPLVRLEFEETEEPDFTALCQKLKIPDHVRERAWLTWEKVSSVDGVLGGYIQKKKELWGICIFIAAVDLDEMSFTFTELQKNIEISVHKFFNLLKEIDTSTKVDNAMSRLLKKYDVLFALFSKLERTCELIYLTQPSSSISTEINSALVLKVSWITFLLAKGEVLQMEDDLVISFQLMLCVLDYFIKLSPPMLLKEPYKTAVIPINGSPRTPRRGQNRSARIAKQLENDTRIIEVLCKEHECNIDEVKNVYFKNFIPFMNSLGLVTSNGLPEVENLSKRYEEIYLKNKDLDARLFLDHDKTLQTDSIDSFETQRTPRKSNLDEEVNVIPPHTPVRTVMNTIQQLMMILNSASDQPSENLISYFNNCTVNPKESILKRVKDIGYIFKEKFAKAVGQGCVEIGSQRYKLGVRLYYRVMESMLKSEEERLSIQNFSKLLNDNIFHMSLLACALEVVMATYSRSTSQNLDSGTDLSFPWILNVLNLKAFDFYKVIESFIKAEGNLTREMIKHLERCEHRIMESLAWLSDSPLFDLIKQSKDREGPTDHLESACPLNLPLQNNHTAADMYLSPVRSPKKKGSTTRVNSTANAETQATSAFQTQKPLKSTSLSLFYKKVYRLAYLRLNTLCERLLSEHPELEHIIWTLFQHTLQNEYELMRDRHLDQIMMCSMYGICKVKNIDLKFKIIVTAYKDLPHAVQETFKRVLIKEEEYDSIIVFYNSVFMQRLKTNILQYASTRPPTLSPIPHIPRSPYKFPSSPLRIPGGNIYISPLKSPYKISEGLPTPTKMTPRSRILVSIGESFGTSEKFQKINQMVCNSDRVLKRSAEGSNPPKPLKKLRFDIEGSDEADGSKHLPGESKFQQKLAEMTSTRTRMQKQKMNDSMDTSNKEEK
 |  | no binding | no binding | in vitro translated [35S]-labelled Orc2 (protein, UniProt Q13416 1-577, [35S]-labelled) MSKPELKEDKMLEVHFVGDDDVLNHILDREGGAKLKKERAQLLVNPKKIIKKPEYDLEEDDQEVLKDQNYVEIMGRDVQESLKNGSATGGGNKVYSFQNRKHSEKMAKLASELAKTPQKSVSFSLKNDPEITINVPQSSKGHSASDKVQPKNNDKSEFLSTAPRSLRKRLIVPRSHSDSESEYSASNSEDDEGVAQEHEEDTNAVIFSQKIQAQNRVVSAPVGKETPSKRMKRDKTSDLVEEYFEAHSSSKVLTSDRTLQKLKRAKLDQQTLRNLLSKVSPSFSAELKQLNQQYEKLFHKWMLQLHLGFNIVLYGLGSKRDLLERFRTTMLQDSIHVVINGFFPGISVKSVLNSITEEVLDHMGTFRSILDQLDWIVNKFKEDSSLELFLLIHNLDSQMLRGEKSQQIIGQLSSLHNIYLIASIDHLNAPLMWDHAKQSLFNWLWYETTTYSPYTEETSYENSLLVKQSGSLPLSSLTHVLRSLTPNARGIFRLLIKYQLDNQDNPSYIGLSFQDFYQQCREAFLVNSDLTLRAQLTEFRDHKLIRTKKGTDGVEYLLIPVDNGTLTDFLEKEEEEA
